According to the supplement of paper PMC6411743:
± gives the standard deviation of the averaged measurements. The list shows a part of the results.

The chains behind the UniProt entries cited, without tags or fusion partners. Where a name states a change or a piece, a line headed by the entry shows the natural chain unless it says otherwise.
UniProt Q53F19: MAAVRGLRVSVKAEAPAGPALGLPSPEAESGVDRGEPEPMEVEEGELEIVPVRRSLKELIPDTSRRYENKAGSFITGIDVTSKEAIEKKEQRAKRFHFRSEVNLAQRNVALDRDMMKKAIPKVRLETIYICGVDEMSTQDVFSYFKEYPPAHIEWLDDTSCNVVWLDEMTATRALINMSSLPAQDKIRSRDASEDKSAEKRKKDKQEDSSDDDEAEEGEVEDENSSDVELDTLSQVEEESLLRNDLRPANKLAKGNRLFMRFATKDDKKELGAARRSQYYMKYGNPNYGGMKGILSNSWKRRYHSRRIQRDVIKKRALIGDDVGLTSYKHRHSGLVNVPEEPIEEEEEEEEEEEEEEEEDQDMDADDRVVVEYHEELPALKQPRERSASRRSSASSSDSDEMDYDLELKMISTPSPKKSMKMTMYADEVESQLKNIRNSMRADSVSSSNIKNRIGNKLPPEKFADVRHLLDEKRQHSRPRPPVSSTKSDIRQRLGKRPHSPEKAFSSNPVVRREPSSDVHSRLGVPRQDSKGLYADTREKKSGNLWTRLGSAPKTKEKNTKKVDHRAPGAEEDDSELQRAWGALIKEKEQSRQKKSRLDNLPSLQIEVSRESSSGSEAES
UniProt Q4VC31: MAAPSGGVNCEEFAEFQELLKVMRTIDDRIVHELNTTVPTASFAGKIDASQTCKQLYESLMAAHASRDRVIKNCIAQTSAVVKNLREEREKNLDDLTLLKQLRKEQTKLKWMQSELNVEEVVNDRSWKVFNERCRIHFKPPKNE
UniProt Q9Y5K5, whole entry: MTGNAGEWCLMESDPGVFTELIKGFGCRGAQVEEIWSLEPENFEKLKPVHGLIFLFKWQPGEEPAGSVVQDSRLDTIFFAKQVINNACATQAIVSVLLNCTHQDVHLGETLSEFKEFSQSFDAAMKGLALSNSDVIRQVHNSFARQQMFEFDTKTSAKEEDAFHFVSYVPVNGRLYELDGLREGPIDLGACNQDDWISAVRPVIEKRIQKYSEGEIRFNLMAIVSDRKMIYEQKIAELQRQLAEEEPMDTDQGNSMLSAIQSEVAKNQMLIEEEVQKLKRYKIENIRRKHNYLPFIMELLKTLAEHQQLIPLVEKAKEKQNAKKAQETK
UniProt Q15906, whole entry: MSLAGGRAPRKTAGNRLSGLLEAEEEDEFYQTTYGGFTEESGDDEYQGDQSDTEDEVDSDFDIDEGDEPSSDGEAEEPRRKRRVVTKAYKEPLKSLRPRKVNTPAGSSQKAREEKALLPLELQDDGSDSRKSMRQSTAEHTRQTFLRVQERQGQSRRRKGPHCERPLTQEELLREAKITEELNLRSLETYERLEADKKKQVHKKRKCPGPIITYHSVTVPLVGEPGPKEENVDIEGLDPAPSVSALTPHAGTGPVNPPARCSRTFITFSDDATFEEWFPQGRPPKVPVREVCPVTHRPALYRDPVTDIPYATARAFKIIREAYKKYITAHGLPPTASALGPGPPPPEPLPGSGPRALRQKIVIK
UniProt Q5SY16: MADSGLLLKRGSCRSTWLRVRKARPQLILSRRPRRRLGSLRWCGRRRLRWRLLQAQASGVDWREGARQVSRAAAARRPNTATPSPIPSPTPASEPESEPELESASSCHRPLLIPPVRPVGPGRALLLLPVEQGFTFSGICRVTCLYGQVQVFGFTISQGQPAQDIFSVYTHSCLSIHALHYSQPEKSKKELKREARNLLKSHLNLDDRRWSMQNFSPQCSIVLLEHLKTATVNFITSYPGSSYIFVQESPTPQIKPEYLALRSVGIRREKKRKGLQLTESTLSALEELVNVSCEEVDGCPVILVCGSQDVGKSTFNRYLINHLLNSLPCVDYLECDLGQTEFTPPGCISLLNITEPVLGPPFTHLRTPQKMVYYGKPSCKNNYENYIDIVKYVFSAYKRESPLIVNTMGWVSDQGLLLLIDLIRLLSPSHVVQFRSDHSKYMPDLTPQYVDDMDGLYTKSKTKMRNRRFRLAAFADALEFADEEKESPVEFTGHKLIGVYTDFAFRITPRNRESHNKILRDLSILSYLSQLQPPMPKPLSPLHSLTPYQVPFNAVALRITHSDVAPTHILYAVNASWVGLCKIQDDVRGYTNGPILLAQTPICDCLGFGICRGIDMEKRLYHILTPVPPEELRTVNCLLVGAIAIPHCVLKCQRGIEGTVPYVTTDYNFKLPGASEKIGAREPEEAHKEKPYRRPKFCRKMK
UniProt Q9ULK4: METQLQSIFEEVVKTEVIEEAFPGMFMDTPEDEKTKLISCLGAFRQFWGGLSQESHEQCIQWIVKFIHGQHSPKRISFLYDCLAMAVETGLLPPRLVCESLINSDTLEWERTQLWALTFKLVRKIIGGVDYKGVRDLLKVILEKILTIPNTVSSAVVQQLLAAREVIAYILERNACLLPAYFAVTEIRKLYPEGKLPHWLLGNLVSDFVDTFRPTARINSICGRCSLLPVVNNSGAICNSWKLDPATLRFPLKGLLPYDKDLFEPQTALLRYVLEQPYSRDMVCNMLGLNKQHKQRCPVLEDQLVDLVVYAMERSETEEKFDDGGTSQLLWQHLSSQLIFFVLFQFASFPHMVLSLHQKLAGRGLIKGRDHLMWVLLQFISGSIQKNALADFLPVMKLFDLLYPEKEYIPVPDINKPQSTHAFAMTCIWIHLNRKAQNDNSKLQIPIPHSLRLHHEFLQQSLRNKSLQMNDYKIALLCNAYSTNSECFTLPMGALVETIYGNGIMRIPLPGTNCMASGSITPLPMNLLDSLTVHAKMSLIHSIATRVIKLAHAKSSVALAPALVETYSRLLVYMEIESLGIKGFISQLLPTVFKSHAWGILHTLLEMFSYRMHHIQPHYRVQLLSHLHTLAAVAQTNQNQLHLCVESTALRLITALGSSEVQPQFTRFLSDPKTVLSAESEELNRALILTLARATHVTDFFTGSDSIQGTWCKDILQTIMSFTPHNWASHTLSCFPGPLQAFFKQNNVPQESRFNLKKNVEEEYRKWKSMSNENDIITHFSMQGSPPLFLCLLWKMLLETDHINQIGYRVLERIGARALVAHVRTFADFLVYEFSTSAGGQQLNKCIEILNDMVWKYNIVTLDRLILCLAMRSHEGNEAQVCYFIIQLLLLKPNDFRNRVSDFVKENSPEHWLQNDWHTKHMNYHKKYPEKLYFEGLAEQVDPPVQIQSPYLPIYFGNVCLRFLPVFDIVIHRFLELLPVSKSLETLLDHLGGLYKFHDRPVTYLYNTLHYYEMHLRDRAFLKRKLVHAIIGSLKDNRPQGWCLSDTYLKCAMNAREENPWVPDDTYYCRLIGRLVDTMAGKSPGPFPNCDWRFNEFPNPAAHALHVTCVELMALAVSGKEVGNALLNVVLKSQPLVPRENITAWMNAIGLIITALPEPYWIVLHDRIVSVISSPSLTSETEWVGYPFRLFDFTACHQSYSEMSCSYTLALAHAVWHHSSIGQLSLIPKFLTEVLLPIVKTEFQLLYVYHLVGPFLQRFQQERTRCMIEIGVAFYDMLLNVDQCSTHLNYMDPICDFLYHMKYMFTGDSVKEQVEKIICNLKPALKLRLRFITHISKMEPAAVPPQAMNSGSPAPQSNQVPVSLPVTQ
UniProt Q15554: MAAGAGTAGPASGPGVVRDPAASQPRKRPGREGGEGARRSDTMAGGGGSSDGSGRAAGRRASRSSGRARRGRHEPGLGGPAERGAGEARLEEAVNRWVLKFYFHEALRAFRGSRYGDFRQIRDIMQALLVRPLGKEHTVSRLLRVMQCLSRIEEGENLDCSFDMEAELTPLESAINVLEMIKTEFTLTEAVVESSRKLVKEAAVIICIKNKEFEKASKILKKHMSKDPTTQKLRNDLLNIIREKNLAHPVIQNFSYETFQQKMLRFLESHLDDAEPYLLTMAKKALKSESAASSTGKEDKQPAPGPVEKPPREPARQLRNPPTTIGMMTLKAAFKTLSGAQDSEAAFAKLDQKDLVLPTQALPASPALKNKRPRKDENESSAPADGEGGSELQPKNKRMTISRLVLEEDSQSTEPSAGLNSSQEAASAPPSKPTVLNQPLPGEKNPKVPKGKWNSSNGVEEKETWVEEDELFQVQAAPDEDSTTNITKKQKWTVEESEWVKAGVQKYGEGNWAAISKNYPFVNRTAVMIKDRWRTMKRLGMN
UniProt Q14CB8: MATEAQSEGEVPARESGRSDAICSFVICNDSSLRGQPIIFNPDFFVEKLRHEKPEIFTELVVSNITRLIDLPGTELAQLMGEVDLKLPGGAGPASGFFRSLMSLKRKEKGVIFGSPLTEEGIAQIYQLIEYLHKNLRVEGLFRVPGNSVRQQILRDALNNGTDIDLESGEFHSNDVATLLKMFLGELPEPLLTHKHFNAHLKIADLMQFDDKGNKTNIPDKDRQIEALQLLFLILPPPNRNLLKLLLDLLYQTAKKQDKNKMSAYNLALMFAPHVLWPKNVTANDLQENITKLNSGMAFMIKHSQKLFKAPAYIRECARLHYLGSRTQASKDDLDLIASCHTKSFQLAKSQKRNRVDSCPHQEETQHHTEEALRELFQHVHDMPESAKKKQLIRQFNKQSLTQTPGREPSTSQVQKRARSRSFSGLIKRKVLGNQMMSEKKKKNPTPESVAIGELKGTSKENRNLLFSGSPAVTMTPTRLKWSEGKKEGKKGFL
UniProt Q15526: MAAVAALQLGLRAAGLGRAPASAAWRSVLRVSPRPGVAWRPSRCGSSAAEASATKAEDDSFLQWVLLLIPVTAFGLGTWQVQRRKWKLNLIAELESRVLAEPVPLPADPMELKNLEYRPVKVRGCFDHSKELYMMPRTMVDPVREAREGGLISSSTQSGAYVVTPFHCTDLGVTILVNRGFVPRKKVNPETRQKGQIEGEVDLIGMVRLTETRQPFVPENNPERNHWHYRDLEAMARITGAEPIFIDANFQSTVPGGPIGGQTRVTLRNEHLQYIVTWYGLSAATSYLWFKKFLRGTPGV
UniProt Q15386: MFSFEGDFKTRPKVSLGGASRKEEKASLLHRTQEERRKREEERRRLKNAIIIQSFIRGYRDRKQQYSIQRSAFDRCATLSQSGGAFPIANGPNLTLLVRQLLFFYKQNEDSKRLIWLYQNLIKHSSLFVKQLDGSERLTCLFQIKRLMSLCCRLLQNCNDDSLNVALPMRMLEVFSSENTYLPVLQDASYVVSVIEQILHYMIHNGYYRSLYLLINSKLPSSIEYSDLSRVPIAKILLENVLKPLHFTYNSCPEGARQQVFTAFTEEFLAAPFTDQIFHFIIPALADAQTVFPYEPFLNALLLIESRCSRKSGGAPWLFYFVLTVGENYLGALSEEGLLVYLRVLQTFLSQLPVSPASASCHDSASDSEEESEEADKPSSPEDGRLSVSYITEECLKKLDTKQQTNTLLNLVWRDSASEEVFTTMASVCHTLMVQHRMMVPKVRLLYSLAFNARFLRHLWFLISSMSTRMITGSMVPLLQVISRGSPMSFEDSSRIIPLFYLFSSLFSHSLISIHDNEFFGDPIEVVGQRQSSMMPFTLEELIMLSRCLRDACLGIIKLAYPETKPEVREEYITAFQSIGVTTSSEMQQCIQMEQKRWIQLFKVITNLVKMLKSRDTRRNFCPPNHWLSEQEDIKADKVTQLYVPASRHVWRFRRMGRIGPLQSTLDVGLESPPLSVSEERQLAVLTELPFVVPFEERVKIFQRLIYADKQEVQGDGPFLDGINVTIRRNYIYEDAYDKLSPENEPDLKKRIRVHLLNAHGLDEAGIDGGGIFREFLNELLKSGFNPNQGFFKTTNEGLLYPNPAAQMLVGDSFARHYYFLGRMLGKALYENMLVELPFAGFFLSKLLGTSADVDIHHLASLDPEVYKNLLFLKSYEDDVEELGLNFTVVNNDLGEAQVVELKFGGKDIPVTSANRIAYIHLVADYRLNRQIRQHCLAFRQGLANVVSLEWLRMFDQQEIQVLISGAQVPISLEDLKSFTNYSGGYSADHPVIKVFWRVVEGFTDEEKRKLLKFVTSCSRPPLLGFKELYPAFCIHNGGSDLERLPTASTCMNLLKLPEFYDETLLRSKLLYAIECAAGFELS
UniProt Q53H12: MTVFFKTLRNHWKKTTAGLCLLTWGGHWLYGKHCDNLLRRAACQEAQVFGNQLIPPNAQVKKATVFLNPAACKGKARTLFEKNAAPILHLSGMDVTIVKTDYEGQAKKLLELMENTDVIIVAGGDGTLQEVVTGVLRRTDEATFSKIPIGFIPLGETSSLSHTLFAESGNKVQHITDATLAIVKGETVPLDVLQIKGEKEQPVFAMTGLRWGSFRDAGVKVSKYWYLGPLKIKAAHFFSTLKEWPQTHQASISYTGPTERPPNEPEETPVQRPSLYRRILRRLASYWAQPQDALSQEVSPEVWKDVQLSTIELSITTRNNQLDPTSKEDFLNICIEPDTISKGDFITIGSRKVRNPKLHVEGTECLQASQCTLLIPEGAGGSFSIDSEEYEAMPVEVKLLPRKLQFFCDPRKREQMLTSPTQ

Compound: Nc1nc2c(ncn2[C@@H]2O[C@H](COP(=O)(O)OP(=O)(O)OP(=O)(O)O)[C@@H](O)[C@H]2O)c(=O)[nH]1 [guanosine triphosphate]
Experiment: NP40-soluble protein abundance relative to vehicle (solubility fold change) (ratio); higher = more soluble protein in presence of GTP
Outline: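 Each value is a fold change relative to the detergent-processed vehicle, calculated per replicate from vsn-normalised intensities. Jurkat crude lysate received eight concentrations (0.1 to 10 mM) for 10 min at room temperature and 3 min at 37 °C, then was solubilised in 0.8% NP40 with benzonase (60 min, 4 °C). The ultracentrifuged supernatant was TMT-labelled and run by LC-MS/MS in three independent experiments.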

| Target | NP40-soluble protein abundance (concentration: 0.1mM) | NP40-soluble protein abundance (concentration: 0.5mM) | NP40-soluble protein abundance (concentration: 1mM) | NP40-soluble protein abundance (concentration: 2mM) | NP40-soluble protein abundance (concentration: 4mM) | NP40-soluble protein abundance (concentration: 6mM) | NP40-soluble protein abundance (concentration: 8mM) | NP40-soluble protein abundance (concentration: 10mM) |
| --- | --- | --- | --- | --- | --- | --- | --- | --- |
| UniProt Q53F19 | 0.981 ± 0.061 | 0.94 ± 0.12 | 1.03 ± 0.13 | 1.04 ± 0.094 | 1.06 ± 0.06 | 1.11 ± 0.082 | 1.15 ± 0.071 | 1.19 ± 0.054 |
| CCDC58 (UniProt Q4VC31) | 0.925 ± 0.075 | 0.884 ± 0.1 | 0.952 ± 0.049 | 0.888 ± 0.068 | 0.866 ± 0.097 | 0.887 ± 0.099 | 0.918 ± 0.086 | 0.934 ± 0.02 |
| UniProt Q5T280 | 1.1 ± 0.1 | 1.05 ± 0.052 | 1.11 ± 0.14 | 1.16 ± 0.056 | 1.29 ± 0.047 | 1.41 ± 0.087 | 1.54 ± 0.08 | 1.69 ± 0.028 |
| Q5LJA5 and related entries (UniProt Q9Y5K5) | 0.963 ± 0.056 | 0.96 ± 0.034 | 0.938 ± 0.049 | 0.946 ± 0.026 | 0.939 ± 0.034 | 0.927 ± 0.023 | 0.921 ± 0.043 | 0.938 ± 0.035 |
| UniProt Q15906 and related entries | 1.01 ± 0.056 | 1.13 ± 0.076 | 1.09 ± 0.13 | 1.22 ± 0.24 | 1.3 ± 0.23 | 1.38 ± 0.23 | 1.46 ± 0.36 | 1.45 ± 0.34 |
| NOL9 (UniProt Q5SY16) | 1.02 ± 0.08 | 1.05 ± 0.15 | 1.03 ± 0.08 | 1.07 ± 0.12 | 1.03 ± 0.059 | 1.05 ± 0.071 | 1.09 ± 0.099 | 1.12 ± 0.056 |
| Q5JWT2 and related entries (UniProt Q9ULK4) | 1.1 ± 0.068 | 1.18 ± 0.073 | 1.08 ± 0.061 | 1.17 ± 0.13 | 1.13 ± 0.12 | 1.11 ± 0.073 | 1.11 ± 0.039 | 1.07 ± 0.092 |
| UniProt Q5H8A4-5 | 0.898 ± 0.12 | 0.88 ± 0.1 | 0.885 ± 0.15 | 0.865 ± 0.11 | 0.892 ± 0.11 | 0.838 ± 0.093 | 0.832 ± 0.11 | 0.865 ± 0.093 |
| TERF2 (UniProt Q15554) | 0.998 ± 0.058 | 1.05 ± 0.052 | 1.06 ± 0.055 | 1.07 ± 0.068 | 1.07 ± 0.057 | 1.1 ± 0.058 | 1.15 ± 0.085 | 1.14 ± 0.1 |
| UniProt Q14CB8 and related entries | 1.1 ± 0.089 | 1.111 ± 0.011 | 1.13 ± 0.045 | 1.23 ± 0.044 | 1.26 ± 0.053 | 1.23 ± 0.11 | 1.27 ± 0.11 | 1.23 ± 0.1 |
| UniProt Q15526 and related entries | 1.17 ± 0.11 | 1.1 ± 0.093 | 0.971 ± 0.038 | 1.01 ± 0.039 | 1 ± 0.027 | 0.972 ± 0.049 | 0.934 ± 0.11 | 0.963 ± 0.018 |
| UBE3C (UniProt Q15386) | 1.04 ± 0.041 | 1.01 ± 0.047 | 0.931 ± 0.066 | 0.94 ± 0.1 | 0.943 ± 0.087 | 0.923 ± 0.072 | 0.854 ± 0.043 | 0.919 ± 0.066 |
| UniProt Q53H12 and related entries | 1.05 ± 0.034 | 1.07 ± 0.028 | 0.997 ± 0.021 | 1 ± 0.016 | 0.976 ± 0.018 | 1 ± 0.024 | 0.983 ± 0.015 | 0.904 ± 0.045 |

2 entries drawn at random from those above, as already listed:

| Target | NP40-soluble protein abundance (concentration: 0.1mM) | NP40-soluble protein abundance (concentration: 0.5mM) | NP40-soluble protein abundance (concentration: 1mM) | NP40-soluble protein abundance (concentration: 2mM) | NP40-soluble protein abundance (concentration: 4mM) | NP40-soluble protein abundance (concentration: 6mM) | NP40-soluble protein abundance (concentration: 8mM) | NP40-soluble protein abundance (concentration: 10mM) |
| --- | --- | --- | --- | --- | --- | --- | --- | --- |
| UBE3C (UniProt Q15386) | 1.04 ± 0.041 | 1.01 ± 0.047 | 0.931 ± 0.066 | 0.94 ± 0.1 | 0.943 ± 0.087 | 0.923 ± 0.072 | 0.854 ± 0.043 | 0.919 ± 0.066 |
| Q5JWT2 and related entries (UniProt Q9ULK4) | 1.1 ± 0.068 | 1.18 ± 0.073 | 1.08 ± 0.061 | 1.17 ± 0.13 | 1.13 ± 0.12 | 1.11 ± 0.073 | 1.11 ± 0.039 | 1.07 ± 0.092 |
